Results from PubChem BioAssay AID652054 (National Center for Advancing Translational Sciences (NCATS), 2013).
Out of some 360,000 compounds screened, about 9,100 (2.5%) were called active. The inconclusive results got no clear call from the source; some entries with a clear call stand among them for comparison. Cut-off read from the data, not from the text of the source: active = max response below about -50%; inconclusive = no clear call, values can overlap the other calls; inactive = above that.

Amino acid sequences for entries named in this document (tags omitted).
UniProt P35462, whole entry, looked up: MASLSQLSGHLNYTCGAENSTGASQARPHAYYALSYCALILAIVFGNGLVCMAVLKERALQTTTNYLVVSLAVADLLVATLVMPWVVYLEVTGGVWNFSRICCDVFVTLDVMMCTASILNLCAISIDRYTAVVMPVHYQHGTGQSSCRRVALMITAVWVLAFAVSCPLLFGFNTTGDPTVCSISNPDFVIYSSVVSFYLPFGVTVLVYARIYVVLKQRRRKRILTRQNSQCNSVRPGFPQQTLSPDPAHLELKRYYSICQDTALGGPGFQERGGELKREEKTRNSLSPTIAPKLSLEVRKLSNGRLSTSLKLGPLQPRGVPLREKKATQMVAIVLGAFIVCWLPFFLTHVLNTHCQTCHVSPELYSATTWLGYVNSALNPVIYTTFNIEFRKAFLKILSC

Molecular target: D(3) dopamine receptor (Homo sapiens) (UniProt P35462)
Test: qHTS of D3 Dopamine Receptor Antagonist: qHTS
Settings: D3R cells, DiscoveRx beta-arrestin luminescence, antagonist mode; active compounds read low
Procedure, shortened: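 Cells plated overnight at 1500 cells/well, then exposed to library compounds with dopamine controls for 90 minutes at 37 degrees C. DiscoveRx reagent added for 30–60 minutes at room temperature; luminescence read, quantitative HTS format.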
% is set by controls: 0 for no effect and ±100 for the full control effect.

SMILES	max response, negative = inhibition
O=C(CNC(=O)c1ccccc1Br)N/N=C/c1ccccc1O	inactive: 13%
OC1(c2ccccc2)CCN(Cc2ccccc2)C2CCCCC21 (stereo not given)	active: -85.2%
O=C1C(=Cc2cccn2-c2ccccc2)C(=O)c2ccccc21	inactive: 5.02%
COc1cc(OC)cc(C(=O)N2CCN(C3CCCCC3)CC2)c1	inconclusive: -34.1%
CCN=c1scc(-c2ccc(F)cc2)n1/N=C/c1ccccn1	inactive: -10.8%
CCOc1cc(/C=C(\C#N)c2[nH]nc(N)c2C#N)ccc1O	inactive: 7.72%
OC(CNCC1(N2CCCCC2)CCCCC1)COc1ccc(Cl)cc1Cl (stereo not given)	inactive: -18.5%
CCOC(=O)c1sc2nc(N3CCOCC3)c3c(c2c1N)CCN(Cc1ccccc1)C3	inactive: -25.9%
CC1=C/C(=N\OS(=O)(=O)c2ccccc2)C(C)=CC1=O	active: -73.4%
CC(C)C[C@@H](CN1CCCC1CN1C(=S)NC[C@@H]1Cc1ccc(O)cc1)N1C[C@H](Cc2ccc(O)cc2)N(CC2CCCCC2)C1=S (stereo not given in full)	inactive: -17%
O=C(NCCCO)/C(=C\c1ccco1)NC(=O)c1ccc(Br)o1	inconclusive: -37.8%
Cc1ccc(CNC(=O)C(=O)NCC2OCCN2S(=O)(=O)c2ccc3c(c2)OCCO3)cc1 (stereo not given)	inactive: 13%
Cn1c(SSc2ccc(-c3cccnc3)n2C)ccc1-c1cccnc1	inconclusive: -39%
CN(CCc1cn[nH]c1)C(=O)C1CCC(=O)N(CC2CCCCC2)C1 (stereo not given)	inconclusive: -35%
CCCC(=O)OCC(=O)NCc1ccc(Cl)cc1	inactive: 12.6%
COc1ccccc1CNC(=O)C(=O)NCC1CCCN1S(=O)(=O)c1cc(C)ccc1C (stereo not given)	inconclusive: -33.9%
Cc1cc(Oc2cnn(C(C)(C)C)c(=O)c2Cl)cc(C(C)C)c1	inconclusive: -36.2%
Cc1cc(OCC(=O)Nc2ccc(S(=O)(=O)N3CCN(C)CC3)cc2)cc(C)c1Cl	inconclusive: -37.5%
CC(C)Oc1cccc(C(=O)Nc2ccc(N3CCN(C)CC3)cc2)c1	inactive: 2.44%
COc1ccccc1Cc1c(-c2ccc(C#N)cc2)nc2ccc(C)cn12	inactive: 7.58%
c1ccc(Sc2ccccc2CN2CCCC2)cc1	inconclusive: -38.4%
COc1ccc(C(C)=O)cc1CN1C(=O)NC2(CCCCC2C)C1=O (stereo not given)	inconclusive: -44.8%
C=C(C)C1CC=C(CN2CCC(O)CC2)CC1 (stereo not given)	inconclusive: -32.5%
COc1ccc(Cl)cc1NC(=S)Nc1cccnc1	inconclusive: -30.8%
Cc1cccc(-n2c(C)n[nH]c2=S)c1C	inconclusive: -32.4%
